For 30 molecules, binding results are on record in paper PMC5778034.

By UniProt entry, the sequences of proteins in these tests, tags left out.
UniProt P31749: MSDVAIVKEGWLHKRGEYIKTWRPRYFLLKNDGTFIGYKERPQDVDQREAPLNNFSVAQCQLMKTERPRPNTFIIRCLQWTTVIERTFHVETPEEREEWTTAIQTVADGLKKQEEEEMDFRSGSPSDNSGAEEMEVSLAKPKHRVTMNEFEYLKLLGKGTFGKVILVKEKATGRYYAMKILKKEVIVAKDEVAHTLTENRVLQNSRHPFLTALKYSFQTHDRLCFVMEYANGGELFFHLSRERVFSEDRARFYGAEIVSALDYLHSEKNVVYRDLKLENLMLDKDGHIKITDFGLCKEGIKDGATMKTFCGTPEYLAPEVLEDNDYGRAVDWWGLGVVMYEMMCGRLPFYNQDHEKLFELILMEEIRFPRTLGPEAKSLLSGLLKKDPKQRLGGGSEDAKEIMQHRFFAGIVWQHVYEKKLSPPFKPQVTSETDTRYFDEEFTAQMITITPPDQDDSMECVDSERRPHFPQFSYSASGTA
UniProt O43684: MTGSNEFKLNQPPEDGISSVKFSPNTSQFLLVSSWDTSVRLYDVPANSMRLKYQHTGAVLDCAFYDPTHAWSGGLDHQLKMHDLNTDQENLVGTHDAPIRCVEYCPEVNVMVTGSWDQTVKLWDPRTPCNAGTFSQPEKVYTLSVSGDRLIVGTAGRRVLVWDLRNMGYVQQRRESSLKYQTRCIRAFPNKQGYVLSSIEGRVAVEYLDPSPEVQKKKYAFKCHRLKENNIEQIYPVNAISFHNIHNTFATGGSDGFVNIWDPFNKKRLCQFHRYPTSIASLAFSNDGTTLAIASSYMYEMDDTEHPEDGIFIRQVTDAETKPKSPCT
UniProt P14635: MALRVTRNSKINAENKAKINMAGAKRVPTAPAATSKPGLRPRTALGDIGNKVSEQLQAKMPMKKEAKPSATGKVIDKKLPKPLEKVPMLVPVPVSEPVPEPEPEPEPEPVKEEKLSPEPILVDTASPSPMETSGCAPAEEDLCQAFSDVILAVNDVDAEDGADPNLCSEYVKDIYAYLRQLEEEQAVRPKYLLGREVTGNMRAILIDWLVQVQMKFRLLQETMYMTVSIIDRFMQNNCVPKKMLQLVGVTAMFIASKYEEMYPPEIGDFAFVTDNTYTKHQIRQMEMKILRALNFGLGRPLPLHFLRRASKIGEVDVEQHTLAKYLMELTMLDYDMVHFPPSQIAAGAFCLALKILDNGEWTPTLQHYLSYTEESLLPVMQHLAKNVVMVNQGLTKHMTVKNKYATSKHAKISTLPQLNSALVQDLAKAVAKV
UniProt Q16643: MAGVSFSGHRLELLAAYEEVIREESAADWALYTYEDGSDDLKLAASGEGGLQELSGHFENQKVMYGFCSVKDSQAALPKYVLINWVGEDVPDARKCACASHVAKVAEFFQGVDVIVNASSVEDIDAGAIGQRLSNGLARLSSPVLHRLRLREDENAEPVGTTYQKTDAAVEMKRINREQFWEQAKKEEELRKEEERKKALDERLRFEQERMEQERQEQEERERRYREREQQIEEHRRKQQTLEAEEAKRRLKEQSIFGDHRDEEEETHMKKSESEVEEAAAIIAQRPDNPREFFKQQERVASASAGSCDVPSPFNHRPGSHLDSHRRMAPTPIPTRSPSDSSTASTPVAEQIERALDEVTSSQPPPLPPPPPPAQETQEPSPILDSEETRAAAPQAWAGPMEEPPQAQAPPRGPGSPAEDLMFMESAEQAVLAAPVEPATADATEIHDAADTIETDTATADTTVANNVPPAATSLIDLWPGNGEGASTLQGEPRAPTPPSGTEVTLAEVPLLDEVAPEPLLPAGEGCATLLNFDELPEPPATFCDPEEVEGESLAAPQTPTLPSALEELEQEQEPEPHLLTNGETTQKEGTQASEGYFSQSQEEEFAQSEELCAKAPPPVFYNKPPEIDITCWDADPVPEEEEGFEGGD
UniProt Q14974: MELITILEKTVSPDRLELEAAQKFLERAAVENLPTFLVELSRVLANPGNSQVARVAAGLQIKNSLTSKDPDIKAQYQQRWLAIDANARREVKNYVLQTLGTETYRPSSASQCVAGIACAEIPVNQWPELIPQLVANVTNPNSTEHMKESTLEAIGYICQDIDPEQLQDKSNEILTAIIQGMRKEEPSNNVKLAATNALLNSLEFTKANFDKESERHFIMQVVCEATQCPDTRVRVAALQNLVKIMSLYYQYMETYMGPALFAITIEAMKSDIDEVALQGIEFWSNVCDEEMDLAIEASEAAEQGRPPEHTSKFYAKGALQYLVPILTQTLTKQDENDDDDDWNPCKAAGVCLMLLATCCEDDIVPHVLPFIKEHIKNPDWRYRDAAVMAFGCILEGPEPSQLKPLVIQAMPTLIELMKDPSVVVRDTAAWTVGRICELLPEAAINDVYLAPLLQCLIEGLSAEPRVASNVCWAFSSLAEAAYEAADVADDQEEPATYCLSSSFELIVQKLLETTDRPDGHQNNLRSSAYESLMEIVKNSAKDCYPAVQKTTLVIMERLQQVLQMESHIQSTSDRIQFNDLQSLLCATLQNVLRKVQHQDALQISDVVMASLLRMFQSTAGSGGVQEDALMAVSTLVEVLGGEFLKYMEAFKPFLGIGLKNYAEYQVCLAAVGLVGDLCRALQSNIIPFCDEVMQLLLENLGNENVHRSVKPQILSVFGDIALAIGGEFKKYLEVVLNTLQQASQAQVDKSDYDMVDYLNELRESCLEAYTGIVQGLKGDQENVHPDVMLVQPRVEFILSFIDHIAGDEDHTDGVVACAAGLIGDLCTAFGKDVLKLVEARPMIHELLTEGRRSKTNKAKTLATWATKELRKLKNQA
UniProt P35579: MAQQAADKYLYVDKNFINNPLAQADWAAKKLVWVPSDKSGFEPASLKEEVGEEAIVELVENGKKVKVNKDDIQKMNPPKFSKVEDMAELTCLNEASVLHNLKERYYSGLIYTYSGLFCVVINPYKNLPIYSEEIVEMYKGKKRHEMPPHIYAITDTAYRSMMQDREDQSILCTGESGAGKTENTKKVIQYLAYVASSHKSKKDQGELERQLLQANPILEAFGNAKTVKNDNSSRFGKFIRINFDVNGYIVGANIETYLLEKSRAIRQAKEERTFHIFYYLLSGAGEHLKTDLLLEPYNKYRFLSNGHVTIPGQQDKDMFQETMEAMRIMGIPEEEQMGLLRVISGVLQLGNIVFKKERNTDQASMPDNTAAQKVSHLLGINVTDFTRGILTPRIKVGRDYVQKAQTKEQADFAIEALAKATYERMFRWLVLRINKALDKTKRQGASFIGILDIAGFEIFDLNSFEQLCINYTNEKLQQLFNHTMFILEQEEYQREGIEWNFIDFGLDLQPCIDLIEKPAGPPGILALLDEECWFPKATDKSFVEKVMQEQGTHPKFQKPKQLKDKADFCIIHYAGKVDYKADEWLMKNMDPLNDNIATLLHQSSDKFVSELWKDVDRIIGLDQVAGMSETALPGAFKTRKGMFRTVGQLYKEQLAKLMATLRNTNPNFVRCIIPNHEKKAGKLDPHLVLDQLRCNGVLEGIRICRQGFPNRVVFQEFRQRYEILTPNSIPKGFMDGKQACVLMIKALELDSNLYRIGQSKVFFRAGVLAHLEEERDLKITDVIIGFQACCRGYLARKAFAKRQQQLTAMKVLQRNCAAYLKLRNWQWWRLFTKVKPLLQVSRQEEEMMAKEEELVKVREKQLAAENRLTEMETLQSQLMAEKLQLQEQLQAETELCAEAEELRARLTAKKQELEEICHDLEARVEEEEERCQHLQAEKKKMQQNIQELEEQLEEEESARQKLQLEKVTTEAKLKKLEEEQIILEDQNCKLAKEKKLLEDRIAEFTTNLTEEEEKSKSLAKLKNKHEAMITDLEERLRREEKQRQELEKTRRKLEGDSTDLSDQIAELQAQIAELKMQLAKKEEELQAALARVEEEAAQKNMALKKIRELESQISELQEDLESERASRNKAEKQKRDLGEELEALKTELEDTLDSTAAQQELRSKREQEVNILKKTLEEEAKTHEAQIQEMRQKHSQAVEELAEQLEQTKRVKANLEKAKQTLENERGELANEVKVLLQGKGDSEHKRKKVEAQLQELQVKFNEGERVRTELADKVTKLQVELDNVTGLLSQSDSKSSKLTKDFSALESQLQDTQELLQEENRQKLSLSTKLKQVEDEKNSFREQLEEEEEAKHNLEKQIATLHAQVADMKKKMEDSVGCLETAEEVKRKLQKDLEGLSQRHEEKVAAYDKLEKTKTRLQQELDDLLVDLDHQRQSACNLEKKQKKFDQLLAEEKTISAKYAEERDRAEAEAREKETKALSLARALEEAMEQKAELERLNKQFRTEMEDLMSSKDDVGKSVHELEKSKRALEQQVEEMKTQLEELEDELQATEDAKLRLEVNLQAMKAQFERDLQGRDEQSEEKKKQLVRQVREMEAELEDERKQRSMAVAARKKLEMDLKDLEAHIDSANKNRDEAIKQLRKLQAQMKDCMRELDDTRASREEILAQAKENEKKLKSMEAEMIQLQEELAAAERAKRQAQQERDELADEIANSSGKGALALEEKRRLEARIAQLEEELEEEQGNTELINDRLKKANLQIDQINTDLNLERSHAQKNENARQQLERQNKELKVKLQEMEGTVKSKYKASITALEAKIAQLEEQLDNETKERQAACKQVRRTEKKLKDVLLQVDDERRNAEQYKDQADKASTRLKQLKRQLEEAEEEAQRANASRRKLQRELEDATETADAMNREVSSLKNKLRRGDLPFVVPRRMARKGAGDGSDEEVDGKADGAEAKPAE
UniProt P11940: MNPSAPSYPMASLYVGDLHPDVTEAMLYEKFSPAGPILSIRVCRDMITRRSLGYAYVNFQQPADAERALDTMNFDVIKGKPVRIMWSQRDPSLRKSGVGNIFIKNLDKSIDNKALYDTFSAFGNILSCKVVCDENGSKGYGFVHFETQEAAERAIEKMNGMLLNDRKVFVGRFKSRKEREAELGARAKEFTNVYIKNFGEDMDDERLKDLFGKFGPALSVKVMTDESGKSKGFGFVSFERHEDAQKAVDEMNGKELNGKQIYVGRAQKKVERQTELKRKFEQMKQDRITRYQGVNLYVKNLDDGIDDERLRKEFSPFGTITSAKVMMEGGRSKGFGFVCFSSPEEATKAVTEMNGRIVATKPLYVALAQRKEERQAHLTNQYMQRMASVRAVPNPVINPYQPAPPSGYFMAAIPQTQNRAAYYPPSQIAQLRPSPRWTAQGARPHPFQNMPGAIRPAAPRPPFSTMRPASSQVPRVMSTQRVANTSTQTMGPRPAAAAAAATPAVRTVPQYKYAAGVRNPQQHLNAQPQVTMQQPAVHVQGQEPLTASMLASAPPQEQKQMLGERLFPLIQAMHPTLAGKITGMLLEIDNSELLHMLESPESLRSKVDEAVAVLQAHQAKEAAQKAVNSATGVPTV
UniProt P68363: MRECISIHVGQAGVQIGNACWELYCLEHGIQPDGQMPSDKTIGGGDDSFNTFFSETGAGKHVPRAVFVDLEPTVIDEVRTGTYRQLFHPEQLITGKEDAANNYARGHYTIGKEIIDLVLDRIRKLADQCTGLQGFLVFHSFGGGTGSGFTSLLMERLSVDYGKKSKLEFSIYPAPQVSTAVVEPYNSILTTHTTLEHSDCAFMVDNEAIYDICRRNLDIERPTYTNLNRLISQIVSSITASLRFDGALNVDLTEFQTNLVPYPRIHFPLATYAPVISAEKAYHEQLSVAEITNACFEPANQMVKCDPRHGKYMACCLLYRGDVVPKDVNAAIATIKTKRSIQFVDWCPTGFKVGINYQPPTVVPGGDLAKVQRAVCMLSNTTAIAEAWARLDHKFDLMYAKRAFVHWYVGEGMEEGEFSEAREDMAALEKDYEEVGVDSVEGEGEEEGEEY
UniProt P68371: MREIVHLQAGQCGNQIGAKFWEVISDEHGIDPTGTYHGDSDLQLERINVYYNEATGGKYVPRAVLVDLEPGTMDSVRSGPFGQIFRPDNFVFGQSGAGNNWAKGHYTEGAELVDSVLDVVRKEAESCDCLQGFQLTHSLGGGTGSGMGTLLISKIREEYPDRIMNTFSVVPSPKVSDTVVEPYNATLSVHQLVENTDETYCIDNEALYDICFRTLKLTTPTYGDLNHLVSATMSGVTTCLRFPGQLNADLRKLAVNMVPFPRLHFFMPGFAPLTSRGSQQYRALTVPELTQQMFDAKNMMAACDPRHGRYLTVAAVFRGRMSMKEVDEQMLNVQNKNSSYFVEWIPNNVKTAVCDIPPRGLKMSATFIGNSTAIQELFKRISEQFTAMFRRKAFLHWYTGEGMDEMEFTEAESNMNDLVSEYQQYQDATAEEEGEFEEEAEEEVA
UniProt P62258: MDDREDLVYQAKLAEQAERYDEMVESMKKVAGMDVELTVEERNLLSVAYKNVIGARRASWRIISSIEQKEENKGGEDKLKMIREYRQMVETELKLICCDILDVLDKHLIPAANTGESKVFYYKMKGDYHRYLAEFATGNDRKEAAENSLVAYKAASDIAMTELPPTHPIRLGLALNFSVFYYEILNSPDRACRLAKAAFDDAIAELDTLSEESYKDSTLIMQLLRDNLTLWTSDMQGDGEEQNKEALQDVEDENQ

Where two headings read alike, the source gives them in different places. No constants are given. Whether binding was seen depends on the method and setting. Binding seen in cells or lysates may run through a third protein. These calls come from enrichment with a bait or labelling near it, and not all partners need be listed.

For test [1], the target named is Akt1 (PKBα) (human) (UniProt P31749). The test is described as follows: affinity purification with mass spectrometry; SH-tagged Akt1 as bait; SILAC-labelled HEK293 cells arrested in G0 (serum starvation), G1/S (aphidicolin) and G2 (nocodazole) mixed 1:1:1; lysis in IP buffer (150 mM NaCl, 50 mM Tris-HCl pH 7.5, 1% NP-40); streptactin magnetic beads and anti-HA agarose in parallel at 4 °C, eluates pooled; LC-MS/MS, 1% G-FDR-fit, three replicates; hits of SH-tagged GFP subtracted.

Test [2] has the same target. The description is as above. This is another data set of the same source.

Turning to BUB3 (from UniProt O43684 1-328), in test [1], the binding entry is “binds”.

With CCNB1 (from UniProt P14635 1-433), the binding result in test [1] is “binds”.

Turning to CORO1C (from UniProt Q9ULV4 1-474), in test [1], the binding entry is on record as “binds”.

“Drebrin 1 (DBN1) (from UniProt Q16643 1-649)”: the binding entry in test [1] is “binds”.

Regarding “Epiplakin 1 (from UniProt P58107 1-5088)”, in test [1], the binding result is given as “binds”.

On to HSPA5 (from UniProt P11021 19-654), for which the binding entry in test [1] is reported as “binds”.

On to IQGAP1 (from UniProt P46940 1-1657), for which, in test [1], the binding result is given as “binds”.

As to “Karyopherin Beta 1 (KPNB1) (from UniProt Q14974 1-876)”, the binding result in test [1] is “binds”.

MAPT (from UniProt P10636 1-758): in test [1], the binding result was “binds”.

As to MYH9 (from UniProt P35579 1-1960), the binding result in test [1] was “binds”.

Take NOTCH2 (from UniProt Q04721 26-2471): the binding entry in test [1] is on record as “binds”.

As to NPM1 (from UniProt P06748 1-294), the binding result in test [1] is reported as “binds”.

Consider PABPPC1 (from UniProt P11940 1-636), for which the binding result in test [1] is recorded as “binds”.

Take PRKDC (from UniProt P78527 1-4128): the binding entry in test [1] is “binds”.

For SH3PX1 (from UniProt Q9Y5X1 1-595), the binding entry in test [1] was “binds”.

Regarding SPTBN2 (from UniProt O15020 1-2390), the binding entry in test [1] is “binds”.

For the molecule TUBA1B (from UniProt P68363 1-451), the binding entry in test [1] is “binds”.

Consider TUBB4B (from UniProt P68371 1-445), for which, in test [1], the binding result was “binds”.

On to TUBB (from UniProt P07437 1-444), for which the binding result in test [1] is listed as “binds”.

Take VCP (from UniProt P55072 1-806): the binding entry in test [1] is “binds”.

As for YWHAE (from UniProt P62258 1-255), the binding entry in test [1] is “binds”.

B1: SMNDC1 (protein, UniProt O75940 1-238)
chain: MSEDLAKQLASYKAQLQQVEAALSGNGENEDLLKLKKDLQEVIELTKDLLSTQPSETLASSDSFASTQPTHSWKVGDKCMAVWSEDGQCYEAEIEEIDEENGTAAITFAGYGNAEVTPLLNLKPVEEGRKAKEDSGNKPMSKKEMIAQQREYKKKKALKKAQRIKELEQEREDQKVKWQQFNNRAYSKNKKGQVKRSIFASPESVTGKVGVGTCGIADKPMTQYQDTSKYNVRHLMPQ
Consider B1, for which the binding result in test [2] is given as “binds”.

B2: SARNP (protein, UniProt P82979 1-210)
chain: MATETVELHKLKLAELKQECLARGLETKGIKQDLIHRLQAYLEEHAEEEANEEDVLGDETEEEETKPIELPVKEEEPPEKTVDVAAEKKVVKITSEIPQTERMQKRAERFNVPVSLESKKAARAARFGISSVPTKGLSSDNKPMVNLDKLKERAQRFGLNVSSISRKSEDDEKLKKRKERFGIVTSSAGTGTTEDTEAKKRKRAERFGIA
Consider B2, for which the binding result in test [2] is “binds”.

B3: ANXA6 (protein, UniProt P08133 1-673)
chain: MAKPAQGAKYRGSIHDFPGFDPNQDAEALYTAMKGFGSDKEAILDIITSRSNRQRQEVCQSYKSLYGKDLIADLKYELTGKFERLIVGLMRPPAYCDAKEIKDAISGIGTDEKCLIEILASRTNEQMHQLVAAYKDAYERDLEADIIGDTSGHFQKMLVVLLQGTREEDDVVSEDLVQQDVQDLYEAGELKWGTDEAQFIYILGNRSKQHLRLVFDEYLKTTGKPIEASIRGELSGDFEKLMLAVVKCIRSTPEYFAERLFKAMKGLGTRDNTLIRIMVSRSELDMLDIREIFRTKYEKSLYSMIKNDTSGEYKKTLLKLSGGDDDAAGQFFPEAAQVAYQMWELSAVARVELKGTVRPANDFNPDADAKALRKAMKGLGTDEDTIIDIITHRSNVQRQQIRQTFKSHFGRDLMTDLKSEISGDLARLILGLMMPPAHYDAKQLKKAMEGAGTDEKALIEILATRTNAEIRAINEAYKEDYHKSLEDALSSDTSGHFRRILISLATGHREEGGENLDQAREDAQVAAEILEIADTPSGDKTSLETRFMTILCTRSYPHLRRVFQEFIKMTNYDVEHTIKKEMSGDVRDAFVAIVQSVKNKPLFFADKLYKSMKGAGTDEKTLTRIMVSRSEIDLLNIRREFIEKYDKSLHQAIEGDTSGDFLKALLALCGGED
As for B3, in test [2], the binding result is reported as “binds”.

B4: NUCKS1 (protein, UniProt Q9H1E3 1-243)
chain: MSRPVRNRKVVDYSQFQESDDADEDYGRDSGPPTKKIRSSPREAKNKRRSGKNSQEDSEDSEDKDVKTKKDDSHSAEDSEDEKEDHKNVRQQRQAASKAASKQREMLMEDVGSEEEQEEEDEAPFQEKDSGSDEDFLMEDDDDSDYGSSKKKNKKMVKKSKPERKEKKMPKPRLKATVTPSPVKGKGKVGRPTASKASKEKTPSPKEEDEEPESPPEKKTSTSPPPEKSGDEGSEDEAPSGED
Turning to B4, the binding entry in test [2] is on record as “binds”.

B5: RBM3, the cold-inducible mRNA binding protein (protein, UniProt P98179 1-157)
chain: MSSEEGKLFVGGLNFNTDEQALEDHFSSFGPISEVVVVKDRETQRSRGFGFITFTNPEHASVAMRAMNGESLDGRQIRVDHAGKSARGTRGGGFGAHGRGRSYSRGGGDQGYGSGRYYDSRPGGYGYGYGRSRDYNGRNQGGYDRYSGGNYRDNYDN
For B5, in test [2], the binding result is on record as “binds”.

B6: HNRNPH3 (protein, UniProt P31942 1-346)
chain: MDWVMKHNGPNDASDGTVRLRGLPFGCSKEEIVQFFQGLEIVPNGITLTMDYQGRSTGEAFVQFASKEIAENALGKHKERIGHRYIEIFRSSRSEIKGFYDPPRRLLGQRPGPYDRPIGGRGGYYGAGRGSMYDRMRRGGDGYDGGYGGFDDYGGYNNYGYGNDGFDDRMRDGRGMGGHGYGGAGDASSGFHGGHFVHMRGLPFRATENDIANFFSPLNPIRVHIDIGADGRATGEADVEFVTHEDAVAAMSKDKNNMQHRYIELFLNSTPGGGSGMGGSGMGGYGRDGMDNQGGYGSVGRMGMGNNYSGGYGTPDGLGGYGRGGGGSGGYYGQGGMSGGGWRGMY
For the molecule B6, the binding entry in test [2] is on record as “binds”.

B7: eukaryotic translation initiation factor 2A (EIF2A) (protein, UniProt Q9BY44 1-585)
chain: MAPSTPLLTVRGSEGLYMVNGPPHFTESTVFPRESGKNCKVCIFSKDGTLFAWGNGEKVNIISVTNKGLLHSFDLLKAVCLEFSPKNTVLATWQPYTTSKDGTAGIPNLQLYDVKTGTCLKSFIQKKMQNWCPSWSEDETLCARNVNNEVHFFENNNFNTIANKLHLQKINDFVLSPGPQPYKVAVYVPGSKGAPSFVRLYQYPNFAGPHAALANKSFFKADKVTMLWNKKATAVLVIASTDVDKTGASYYGEQTLHYIATNGESAVVQLPKNGPIYDVVWNSSSTEFCAVYGFMPAKATIFNLKCDPVFDFGTGPRNAAYYSPHGHILVLAGFGNLRGQMEVWDVKNYKLISKPVASDSTYFAWCPDGEHILTATCAPRLRVNNGYKIWHYTGSILHKYDVPSNAELWQVSWQPFLDGIFPAKTITYQAVPSEVPNEEPKVATAYRPPALRNKPITNSKLHEEEPPQNMKPQSGNDKPLSKTALKNQRKHEAKKAAKQEARSDKSPDLAPTPAPQSTPRNTVSQSISGDPEIDKKIKNLKKKLKAIEQLKEQAATGKQLEKNQLEKIQKETALLQELEDLELGI
For B7, the binding entry in test [2] is “binds”.

B8: MYO1D (protein, UniProt O94832 1-1006)
chain: MAEQESLEFGKADFVLMDTVSMPEFMANLRLRFEKGRIYTFIGEVVVSVNPYKLLNIYGRDTIEQYKGRELYERPPHLFAIADAAYKAMKRRSKDTCIVISGESGAGKTEASKYIMQYIAAITNPSQRAEVERVKNMLLKSNCVLEAFGNAKTNRNDNSSRFGKYMDINFDFKGDPIGGHINNYLLEKSRVIVQQPGERSFHSFYQLLQGGSEQMLRSLHLQKSLSSYNYIHVGAQLKSSINDAAEFRVVADAMKVIGFKPEEIQTVYKILAAILHLGNLKFVVDGDTPLIENGKVVSIIAELLSTKTDMVEKALLYRTVATGRDIIDKQHTEQEASYGRDAFAKAIYERLFCWIVTRINDIIEVKNYDTTIHGKNTVIGVLDIYGFEIFDNNSFEQFCINYCNEKLQQLFIQLVLKQEQEEYQREGIPWKHIDYFNNQIIVDLVEQQHKGIIAILDDACMNVGKVTDEMFLEALNSKLGKHAHFSSRKLCASDKILEFDRDFRIRHYAGDVVYSVIGFIDKNKDTLFQDFKRLMYNSSNPVLKNMWPEGKLSITEVTKRPLTAATLFKNSMIALVDNLASKEPYYVRCIKPNDKKSPQIFDDERCRHQVEYLGLLENVRVRRAGFAFRQTYEKFLHRYKMISEFTWPNHDLPSDKEAVKKLIERCGFQDDVAYGKTKIFIRTPRTLFTLEELRAQMLIRIVLFLQKVWRGTLARMRYKRTKAALTIIRYYRRYKVKSYIHEVARRFHGVKTMRDYGKHVKWPSPPKVLRRFEEALQTIFNRWRASQLIKSIPASDLPQVRAKVAAVEMLKGQRADLGLQRAWEGNYLASKPDTPQTSGTFVPVANELKRKDKYMNVLFSCHVRKVNRFSKVEDRAIFVTDRHLYKMDPTKQYKVMKTIPLYNLTGLSVSNGKDQLVVFHTKDNKDLIVCLFSKQPTHESRIGELVGVLVNHFKSEKRHLQVNVTNPVQCSLHGKKCTVSVETRLNQPQPDFTKNRSGFILSVPGN
Turning to B8, in test [2], the binding entry was “binds”.

B9: API5 (protein, UniProt Q9BZZ5 1-524)
chain: MPTVEELYRNYGILADATEQVGQHKDAYQVILDGVKGGTKEKRLAAQFIPKFFKHFPELADSAINAQLDLCEDEDVSIRRQAIKELPQFATGENLPRVADILTQLLQTDDSAEFNLVNNALLSIFKMDAKGTLGGLFSQILQGEDIVRERAIKFLSTKLKTLPDEVLTKEVEELILTESKKVLEDVTGEEFVLFMKILSGLKSLQTVSGRQQLVELVAEQADLEQTFNPSDPDCVDRLLQCTRQAVPLFSKNVHSTRFVTYFCEQVLPNLGTLTTPVEGLDIQLEVLKLLAEMSSFCGDMEKLETNLRKLFDKLLEYMPLPPEEAENGENAGNEEPKLQFSYVECLLYSFHQLGRKLPDFLTAKLNAEKLKDFKIRLQYFARGLQVYIRQLRLALQGKTGEALKTEENKIKVVALKITNNINVLIKDLFHIPPSYKSTVTLSWKPVQKVEIGQKRASEDTTSGSPPKKSSAGPKRDARQIYNPPSGKYSSNLGNFNYEQRGAFRGSRGGRGWGTRGNRSRGRLY
As to B9, in test [2], the binding entry is listed as “binds”.
